Data taken from the RNAGym collection of RNA variant scans (doi:10.1126/science.aae0568).
This sample is rich in variants without activity.

B1: tRNA (parent)
chain: GUUCCGUUGGCGUAAUGGUAACGCGUCUCCCUCCUAAGGAGAAGACUGCGGGUUCGAGUCCCGUACGGAACG

Variants of: B1
Assay: yeast fitness relative to wild type (ratio to wild type); higher = fitter; tRNA-Arg(CCU), competitive growth, 37 C, YPD
How it was run: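 A pool of Saccharomyces cerevisiae strains, each with a tRNA-Arg(CCU) gene variant at the native genomic locus, was competed in YPD at 37°C for 24 hours across six parallel replicates. The variants had been chemically synthesised at a 3% per-site mutation rate over 69 sites, and gene amplicons before and after competition were read by 100-nucleotide paired-end sequencing. Darwinian fitness relative to wild type rested on changes in genotype frequencies. Genotypes required ≥ 100 starting reads, and estimates < 0.5 were set to 0.5.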

Row | Variant | yeast fitness
1 | G25A A57C | 0.697
2 | G25A C27G C61G | 0.574
3 | G25A C27U A69C | 0.73
4 | G25A C29U A57U C62A | ≤ 0.5
5 | G25A C29U C66U | 0.747
6 | G25A C34G C49U G63C U64C | ≤ 0.5
7 | G25A G39A G50C G51C A69C | ≤ 0.5
8 | G25A G44C G50C A57G U64C | ≤ 0.5
9 | G25A G52U U54C | ≤ 0.5
10 | G25A G58C C60A A65C | ≤ 0.5
11 | G25A U28A A43U G58A C61U A70G | ≤ 0.5
12 | G25A U35A G41A C46U G68A | ≤ 0.5
13 | G25C A36U G56C A65C | ≤ 0.5
14 | G25C A42G A69C A70G | ≤ 0.5
15 | G25C A43U A45G U47C | ≤ 0.5
16 | G25C C27A | 0.678
17 | G25C C29A U32A A65U | ≤ 0.5
18 | G25C C29U A70U | ≤ 0.5
19 | G25C C30G C62U | ≤ 0.5
20 | G25C C31A G68A | ≤ 0.5
21 | G25C C31G | 0.704
22 | G25C C46U A57U G67C | ≤ 0.5
23 | G25C C66A | 0.677
24 | G25C C66U A69C | 0.685

Row | Variant | yeast fitness
25 | G25C G52A U54G A65C | ≤ 0.5
26 | G25C U26G C46G G51A A70U | ≤ 0.5
27 | G25C U32G G38A C61U A70C | ≤ 0.5
28 | G25C U35C A42G G58C | ≤ 0.5
29 | G25C U53C A65C | 0.697
30 | G25U A36U G56C C62U G63A C66G | ≤ 0.5
31 | G25U G68A A70C | ≤ 0.5
32 | G25U U64G | 0.788
33 | U26A A36G C49A G67C | ≤ 0.5
34 | U26A A43U C55U C66U | ≤ 0.5
35 | U26A A65C | 0.946
36 | U26A A70G | 0.924
37 | U26A C27A U28A C34U G68A A69C | 0.534
38 | U26A C27U G56C G68A A70U | ≤ 0.5
39 | U26A C29A C31G | ≤ 0.5
40 | U26A C29A C31G C61U | ≤ 0.5
41 | U26A C31G A37G G63A | ≤ 0.5
42 | U26A C33A C34G | 0.644
43 | U26A G58C | 0.98
44 | U26A U28A C31U C66G | ≤ 0.5
45 | U26A U28G A70G | ≤ 0.5
46 | U26C A43G | 1.01
47 | U26C C29A C34A C61A | ≤ 0.5
48 | U26C C29U A43G | ≤ 0.5

Row | Variant | yeast fitness
49 | U26C C29U U35C G63A | ≤ 0.5
50 | U26C C30U U47A | 0.749
51 | U26C C30U U59A A69U | ≤ 0.5
52 | U26C C31G A65U G67C | ≤ 0.5
53 | U26C C31U U53A C66A | ≤ 0.5
54 | U26C C33G G39A G44A | ≤ 0.5
55 | U26C C34A C46U A57C | ≤ 0.5
56 | U26C C34U | 0.716
57 | U26C C46A U47G G50A G58C C60U C66G | ≤ 0.5
58 | U26C G48C C60A | ≤ 0.5
59 | U26C G50C A57U | ≤ 0.5
60 | U26C G52C G67C | ≤ 0.5
61 | U26C G58A | 1
62 | U26C U35C C49A | ≤ 0.5
63 | U26C U54A C66A | ≤ 0.5
64 | U26C U54C U64A | ≤ 0.5
65 | U26G A37U A45U G51A | ≤ 0.5
66 | U26G C30U U59G U64G G68A | ≤ 0.5
67 | U26G C62G | 0.755
68 | U26G C62G G68A | ≤ 0.5
69 | U26G G44A C62U A70C | ≤ 0.5
70 | U26G U28A C29A A70C | ≤ 0.5
71 | C27A A45G G48C | ≤ 0.5
72 | C27A A57G G63A | 0.551

Row | Variant | yeast fitness
73 | C27A C29A C33A | ≤ 0.5
74 | C27A C29G C33U A37C G50A C66U | ≤ 0.5
75 | C27A C30G A42C C61G | 1.01
76 | C27A C30G G41C C61G C62U A69U | 0.557
77 | C27A C31A G52A G58C A70G | ≤ 0.5
78 | C27A C61A | 0.67
79 | C27A C61G A69G | ≤ 0.5
80 | C27A C62G A65U | ≤ 0.5
81 | C27A G39C | 0.616
82 | C27A G44A A57C | ≤ 0.5
83 | C27A U32A C61G U64C | ≤ 0.5
84 | C27A U35C | 0.735
85 | C27G A36C G48C | ≤ 0.5
86 | C27G A36G A40G | ≤ 0.5
87 | C27G A36G A65G | ≤ 0.5
88 | C27G A40C C55G | ≤ 0.5
89 | C27G A40G | 0.594
90 | C27G A40G G52A | ≤ 0.5
91 | C27G A42U | 0.721
92 | C27G A45C C55G G58C | ≤ 0.5
93 | C27G A45C C55U | ≤ 0.5
94 | C27G A45C G52A A57G | ≤ 0.5
95 | C27G A57G C60A C66G | ≤ 0.5
96 | C27G A57G C60G A69U | ≤ 0.5

Row | Variant | yeast fitness
97 | C27G A65U G68U A69G | ≤ 0.5
98 | C27G C29G C34U C55U C61G | 0.65
99 | C27G C29U G63C | ≤ 0.5
100 | C27G C30A C34G A45G C62U A69G | ≤ 0.5
101 | C27G C30U C66G | ≤ 0.5
102 | C27G C30U G39C A40U G44C U47A G48A A65C | ≤ 0.5
103 | C27G C30U U32C U59C | ≤ 0.5
104 | C27G C31A C34A G38C C49G | ≤ 0.5
105 | C27G C31G A65C | ≤ 0.5
106 | C27G C31U C34G A37G G51A G56A G67C | ≤ 0.5
107 | C27G C33A A40U C46U | ≤ 0.5
108 | C27G C34A C61U | ≤ 0.5
109 | C27G C34G C55U | ≤ 0.5
110 | C27G C49U A65C | ≤ 0.5
111 | C27G C49U C55G | ≤ 0.5
112 | C27G C49U C66G | ≤ 0.5
113 | C27G C55U A65U A70G | ≤ 0.5
114 | C27G G38A A57U | ≤ 0.5
115 | C27G G39A C46U C55A C66A | ≤ 0.5
116 | C27G G41A G67U | 0.709
117 | C27G G51A | ≤ 0.5
118 | C27G G52A G63A | 0.533
119 | C27G G56C A65G | ≤ 0.5
120 | C27G G58A | 0.698

Row | Variant | yeast fitness
121 | C27G G63C A70G | ≤ 0.5
122 | C27G U28A A65U | ≤ 0.5
123 | C27G U47C G48A G50A A57G C60G | ≤ 0.5
124 | C27G U54C A69G | 0.625
125 | C27G U59G | 0.641
126 | C27U A36C C62U | ≤ 0.5
127 | C27U A36U U54A C61A A65U A69U | ≤ 0.5
128 | C27U A37C A40U A43U C66U | 0.583
129 | C27U A40G C62G G68A | ≤ 0.5
130 | C27U A40U U54C C55A | ≤ 0.5
131 | C27U A43C C49U | 0.757
132 | C27U A57U G63A | ≤ 0.5
133 | C27U C29U G51U | ≤ 0.5
134 | C27U C30G C66A A70U | ≤ 0.5
135 | C27U C30U A37C | ≤ 0.5
136 | C27U C31G A69C | 0.604
137 | C27U C33A U59A | ≤ 0.5
138 | C27U C34G A37U G41C G48A | ≤ 0.5
139 | C27U C46G A57U C66U A70U | ≤ 0.5
140 | C27U C46U C55G | ≤ 0.5
141 | C27U C46U G48A A70C | 0.669
142 | C27U C46U G48A G68U | ≤ 0.5
143 | C27U C55A A69C | 0.573
144 | C27U C62U G68C A69G | ≤ 0.5

Row | Variant | yeast fitness
145 | C27U G39C C60A | ≤ 0.5
146 | C27U G52C G67A | ≤ 0.5
147 | C27U U28C G38A A69C A70G | ≤ 0.5
148 | C27U U32C C62G | ≤ 0.5
149 | C27U U32G G44A A57G | ≤ 0.5
150 | C27U U35A G50C G51C | ≤ 0.5
151 | C27U U47G G50A | ≤ 0.5
152 | C27U U54G C66U | ≤ 0.5
153 | U28A A43C G68C | ≤ 0.5
154 | U28A C29U A45C G51C A57C | ≤ 0.5
155 | U28A C33G A43C G63A A70U | ≤ 0.5
156 | U28A C34G C49G G68C | ≤ 0.5
157 | U28A C34G C62U | ≤ 0.5
158 | U28A G51C A57C A69U | ≤ 0.5
159 | U28A U35G G63C C66G | ≤ 0.5
160 | U28A U64C | 0.834
161 | U28C A42C C60U | 0.589
162 | U28C A65G | 0.998
163 | U28C C30G A45G | ≤ 0.5
164 | U28C C33U G58C | ≤ 0.5
165 | U28C C46A U64A | ≤ 0.5
166 | U28C C49U C55G | ≤ 0.5
167 | U28C C49U G67A | ≤ 0.5
